The match of structure and compound is tentative.
What follows are molecules tested against intracellular domain of DDR1 (Homo sapiens, UniProt Q08345) (assay: Evaluation of DDR1 inhibition activity with HTRF KinEASE-TK kit). Settings: DDR1 intracellular domain 5 ng/μL, ATP 25 μm/L, TK Substrate-biotin 1000 nmol/L, room temperature, one hour.
Procedure: The DDR1 inhibition activity in the compounds of Examples 1 to 80 was evaluated with HTRF® KinEASE-TK kit (Cisbio Bioassays).
Each test substance was dissolved in dimethyl sulfoxide and then used for the evaluation as described below. Moreover, each of test substances and reagents was diluted in the kinase buffer (Cisbio Bioassays) prepared by adding thereto MgCl2, MnCl2, DTT, and the Supplemental Enzyme buffer (Cisbio Bioassays) to concentrations of 5 mmol/L, 0.5 mmol/L, 0.25 mmol/L, and 50 nmol/L, respectively, and then used. Each test substance (in DMSO in a final concentration of 1%), the intracellular domain of DDR1 (in a final concentration of 5 ng/μL) (Carna Biosciences, Inc.), the phosphate donor ATP (in final concentration of 25 μm/L) (Sigma), and the substrate TK Substrate-biotin (in a final concentration of 1000 nmol/L) (Cisbio Bioassays) were added to a 384-well black plate (Corning) and allowed to react at room temperature for one hour. After completion of the reaction, the TK Antibody-Cryptate (Cisbio Bioassays) and the Streptavidin-XL665 (Cisbio Bioassays) were added thereto and allowed to react at room temperature for one hour. […]
The fluorescence intensity in each well was measured using a multi-label counter (Envision, PerkinElmer; excitation wavelength: 320 nm, measurement wavelength: 665 nm and 620 nm) to calculate a ratio (the fluorescence intensity at 665 nm/the fluorescence intensity at 620 nm). The inhibition rate (%) of a test substance at each concentration was calculated based on the formula below: Inhibition rate (%)=([the ratio obtained from the well containing no test substance]−[the ratio from a well containing a test substance])/([the ratio obtained from the well containing no test substance]−[the ratio obtained from the well containing no intracellular domain of DDR1 and no test substance])×100.
The calculated inhibition rates were fitted to a sigmoidal dose-response curve by regression analysis using the Prism 5.04 (GraphPad Software, Inc.) to calculate the IC50 value of the test substance.

The chains behind the UniProt entries cited, without tags or fusion partners. Residues count along the entry.
UniProt Q08345, 439-913 limits assumed: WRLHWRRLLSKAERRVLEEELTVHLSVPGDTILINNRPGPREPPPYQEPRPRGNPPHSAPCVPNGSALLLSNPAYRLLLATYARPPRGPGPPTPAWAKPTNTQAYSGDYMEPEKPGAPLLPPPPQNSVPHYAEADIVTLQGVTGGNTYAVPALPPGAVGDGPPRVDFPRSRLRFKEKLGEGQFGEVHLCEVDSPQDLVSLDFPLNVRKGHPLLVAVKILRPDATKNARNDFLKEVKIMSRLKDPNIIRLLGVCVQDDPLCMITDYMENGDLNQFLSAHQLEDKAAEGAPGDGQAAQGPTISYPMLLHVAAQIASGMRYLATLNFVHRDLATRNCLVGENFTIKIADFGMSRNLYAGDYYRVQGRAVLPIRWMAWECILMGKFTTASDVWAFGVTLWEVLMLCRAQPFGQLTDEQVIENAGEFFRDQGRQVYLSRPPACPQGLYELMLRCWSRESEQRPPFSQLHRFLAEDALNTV

IC50 [nM] | SMILES
171 | COc1ccc(OC(F)(F)F)cc1NC(=O)N[C@H]1CC[C@H](Oc2ccnc(N3CCOCC3)c2)CC1
6.65 | COc1ccc(OC(F)(F)F)cc1NC(=O)N[C@H]1CC[C@H](COc2cncc(C(N)=O)c2)CC1
204 | COc1ccc(OC(F)(F)F)cc1NC(=O)N[C@H]1CC[C@H](Oc2ccncc2)CC1

From US10280145B2 (Toray Industries, Inc., priority 2015, dated 2019)
